PubChem BioAssay AID493014 (National Center for Advancing Translational Sciences (NCATS), 2011)
This is one part of the list. The main result of the screen is listed elsewhere. These columns were measured beside it and carry no call. Compounds called inactive in the main read-out are mostly missing here. Words in brackets tell the shape of the fitted curve; partial curves, single points and poor fits give uncertain potencies.

Test: qHTS Assay to Find Inhibitors of Chronic Active B-Cell Receptor Signaling
Settings: ABC-DLBCL IkBa-CBG/CBR reporter, luminescence ratio (green luciferase fused to IkBa over red control in TMD8 lymphoma cells), 4 h
Summary of the method: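 TMD8 human ABC-DLBCL cells with doxycycline-inducible IκBα–green luciferase fusion and unfused red luciferase, in 0.5% FBS medium; compounds up to 46 uM, 4 h at 37C. Green/red luminescence ratio, filter-overlap corrected, fitted to concentration-response curves.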

[1] = measured here: CBR red luminescence, cell number
[2] = measured here: IkBa-CBG green luminescence

SMILES	AC50 [1]	AC50 [2]
CCOC(=O)c1sc(-c2ccccc2)cc1N	2.06 µM [rising, partial curve]	–
COc1ccc(CCN(C)C(=O)c2cc(=O)c3ccccc3o2)cc1OC	12.6 µM [rising, partial curve, poor fit]	–
CCc1noc(C)c1C(=O)N(CC)CC(=O)Nc1cc(Cl)ccc1C	13 µM [rising, partial curve, poor fit]	–
CCn1c(O)c(N=Nc2ccc(Cl)c(C(=O)O)c2)c2ccccc21	10 µM [falling, partial curve, poor fit]	–
CCOC(=O)c1ccc(NC(=O)CS(=O)(=O)c2cn(CC)c3ccccc23)cc1	11.2 µM [falling, partial curve, poor fit]	–
O=C(CNc1ccccc1)Nc1cccc2ccccc12	0.562 µM [falling, full curve]	–
CCc1ccc(-c2cn3nc(C)c(C)nc3n2)cc1	10 µM [falling, partial curve]	–
COc1cccc(/C=N/NC(=O)c2ccoc2C)c1	8.91 µM [falling, partial curve]	–
O=C(O)C1CCCC[C@H]1C(=O)Nc1ncc([N+](=O)[O-])s1 (stereo partly drawn)	18.4 µM [rising, single point]	–
CC(C)(Oc1ccc(Br)cc1Cl)C(=O)Nc1ccon1	31.6 µM [rising, single point]	–
O=C(CSc1nnnn1Cc1ccccc1)Nc1ccc2c(c1)OCO2	29.1 µM [rising, single point]	–
O=C(Nc1ccc(F)c(Cl)c1)N1CCCC1	35.5 µM [falling, single point]	–
Cc1ccc(C(=O)O)cc1NC(=S)NC(=O)C(c1ccccc1)c1ccccc1	2.51 µM [rising, full curve]	14.1 µM [falling, partial curve, poor fit]
Cc1n[nH]c(C)c1NC(=O)c1cc([N+](=O)[O-])ccc1Cl	17.8 µM [rising, single point]	–
Cc1ccc(C(=O)N2CCN=C2SCc2ccc([N+](=O)[O-])cc2)cc1	25.9 µM [falling, partial curve, poor fit]	–
CCOC(=O)CN(C(=O)CNC(=O)c1cccs1)C(C(=O)NC1CCCC1)c1cccnc1 (stereo not drawn)	23.1 µM [falling, single point]	–
O=c1[nH]c(C2CCN(S(=O)(=O)c3ccc4c(c3)OCCO4)CC2)nc2c1nnn2Cc1ccc(F)cc1	1.78 µM [falling, full curve]	–
COc1cc(-c2cc(C(=O)Nc3ccccc3N3CCOCC3)c3ccccc3n2)cc(OC)c1OC	2.82 µM [rising, single point]	–
Cn1c(CCN2CCCCC2)nc2cc(NC(=O)Nc3ccccc3)ccc21	0.251 µM [falling, full curve, poor fit]	–
COc1ccc(C2CC(=O)c3c([nH]c(C(=O)OC(C)C)c3C)C2)cc1OC (stereo not drawn)	23.1 µM [rising, partial curve, poor fit]	–

Reprinted at random: 2 entries already listed
SMILES	AC50 [1]	AC50 [2]
O=C(CSc1nnnn1Cc1ccccc1)Nc1ccc2c(c1)OCO2	29.1 µM [rising, single point]	–
COc1cc(-c2cc(C(=O)Nc3ccccc3N3CCOCC3)c3ccccc3n2)cc(OC)c1OC	2.82 µM [rising, single point]	–

Going on with the list.

SMILES	AC50 [1]	AC50 [2]
COc1ccc(-c2[nH]ncc2CNCc2cc(C)n(C)n2)c(F)c1	5.62 µM [rising, single point]	–
C/C(=N\Nc1nc2ccccc2[nH]1)c1cccs1	9.2 µM [falling, partial curve]	–
CC(=O)Nc1cccc(-n2c(=O)n(Cc3ccccc3)c(=O)c3[nH]cnc32)c1	22.4 µM [rising, partial curve]	11.2 µM [falling, partial curve, poor fit]
Cc1cc(C)cc(NC(=S)N=Nc2c(O)n(C)c3ccc(S(=O)(=O)N4CCOCC4)cc23)c1	18.4 µM [rising, single point]	–
CC(C)(C)OC(=O)N1CCC(c2cc(-c3cccs3)n[nH]2)CC1	35.5 µM [falling, single point]	–
COc1ccc(S(=O)(=O)N2CCOCC2)cc1NC(=O)COc1ncnc2ccccc12	29.1 µM [rising, single point]	–
O=C(CN(c1cccc(C(F)(F)F)c1)S(=O)(=O)c1ccccc1)Nc1cccc(Cl)c1	7.08 µM [falling, full curve, poor fit]	6.31 µM [rising, partial curve, poor fit]
O=C(O)C1CC=CCC1C(=O)Nc1ccc2c(c1)CCC2 (stereo not drawn)	7.08 µM [rising, partial curve]	–
CCN(CC(=O)Nc1c(F)cccc1F)C(=O)/C=C/c1ccc(Br)s1	1.3 µM [falling, full curve]	–
CCOc1ccc2nc(NC(=O)c3ccccn3)sc2c1	–	11.2 µM [falling, partial curve]
CC(NC(=O)COc1ncnc2cc([N+](=O)[O-])ccc12)c1ccccc1 (stereo not drawn)	16.4 µM [falling, single point]	–
O=C(O)c1ccc(N=Nc2c(O)[nH]c3ccccc23)cc1	0.316 µM [falling, full curve, poor fit]	–
O=C(c1cc(S(=O)(=O)N2CCOCC2)ccc1F)N1CCCc2ccccc21	23.1 µM [falling, partial curve, poor fit]	–
Clc1ccccc1-c1nnc(CNC2CC2)o1	2.82 µM [falling, partial curve, poor fit]	–
COC(=O)c1ccc(NC(=O)CN(C)S(=O)(=O)c2ccc(OC)c(C)c2)cc1	6.51 µM [falling, partial curve, poor fit]	–
COc1ccc(N2CCN(CC(O)c3c[nH]c4ccc(OC)cc34)CC2C)cc1 (stereo not drawn)	35.5 µM [falling, single point]	20 µM [rising, partial curve, poor fit]
OCC(O)/C=N/Nc1nc2ccccc2s1 (stereo not drawn)	35.5 µM [falling, single point]	–
Cc1ccc2nc(SCC(=O)Nc3ccc4c(c3)OCCO4)[nH]c2c1	0.103 µM [falling, full curve, poor fit]	–
CCOc1cc(/C=C2\CCn3c2nc2cc(Cl)ccc2c3=O)ccc1O	3.16 µM [falling, full curve]	–
